PubChem BioAssay AID652272, Drosophila RNAi Screening Center, 2013

- Assay: 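Genome-wide knock-down search for components of Hedgehog signalling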 (primary screen)
- Cell system: Drosophila clone 8 (Cl8) cells
- Reagent: long dsRNA against Drosophila genes
- Detection: 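Firefly light from a Hedgehog-responsive ptc promoter reporter and Renilla reference light, both read on a plate reader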
- Reading the numbers: firefly Hh reporter signal: higher = more ptc reporter light; Renilla reference signal: higher = more Renilla control light
- Rule for the call: 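Hit when the z-score averaged over two replicates is under -2 or over +3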
- Calls: active = hit: reporter lowered or raised; inactive = not a hit
The screen tested about 21,000 reagents; this is an unselected part of those that have a named target and a result. In the full data, 503 (2.4%) are marked active. 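Raw plate light values, not normalised; calls rest on replicate z-scores that were not deposited; hits include reporter decreases as well as increases.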 A plus sign joins genes that one reagent is predicted to hit. The record does not give: the amount of reagent, the time to read-out.

| firefly Hh reporter signal, replicate 1 | firefly Hh reporter signal, replicate 2 | firefly Hh reporter signal, replicate 3 | Renilla reference signal, replicate 1 | Renilla reference signal, replicate 2 | Call | target | DRSC id |
| --- | --- | --- | --- | --- | --- | --- | --- |
| 54806 | 22200 | – | 1392 | 1457 | inactive | ths (GeneID 36258) | DRSC06153 |
| 1.08e5 | 1.51e5 | – | 3481 | 14371 | inactive | Npc2h (GeneID 43649) | DRSC14297 |
| 1.16e5 | 83959 | – | 3378 | 6796 | inactive | Mst33A (GeneID 34578) | DRSC03371 |
| 2.00e5 | 3.80e5 | – | 4918 | 15495 | inactive | stmA (GeneID 35865) | DRSC05120 |
| 83421 | 81600 | – | 2694 | 2898 | inactive | stmA (GeneID 35865) | DRSC07593 |
| 57314 | 26992 | – | 2823 | 1377 | inactive | Sin3A (GeneID 36382) | DRSC07552 |
| 1.11e5 | 42584 | – | 3291 | 2979 | inactive | CG9945 (GeneID 37329) | DRSC07347 |
| 92578 | 86058 | – | 2297 | 2402 | inactive | Taf10b + Taf10 | DRSC00793 |
| 79868 | 50740 | – | 2372 | 4796 | inactive | FoxL1 (GeneID 38471) | DRSC08717 |
| 58396 | 1.99e5 | – | 12273 | 4898 | inactive | CG43446 (GeneID 12798498) | DRSC13458 |
| 87760 | 41936 | – | 1688 | 4165 | inactive | Cyp6a16Psi (retired record) (GeneID 3772661) | DRSC03307 |
| 37252 | 2.23e5 | – | 7613 | 4902 | inactive | CG34316 + asRNA:CR43471 | DRSC13080 |
| 40560 | 96843 | – | 1909 | 3466 | inactive | bsf (GeneID 35100) | DRSC02035 |
| 1.23e5 | 79376 | – | 3190 | 3226 | inactive | CG1635 (GeneID 43720) | DRSC15131 |
| 1.20e5 | 97618 | – | 4657 | 2512 | inactive | Cul5 (GeneID 43434) | DRSC14723 |
| 12521 | 14613 | – | 4803 | 1971 | active | RpL14 (GeneID 38983) | DRSC11269 |
| 92573 | 47778 | – | 2400 | 4314 | inactive | CG15172 (GeneID 35167) | DRSC02473 |
| 73460 | 87104 | – | 1748 | 6224 | inactive | sxc (GeneID 35486) | DRSC04911 |
| 1.45e5 | 1.12e5 | – | 3351 | 2776 | inactive | Pvf1 (GeneID 32876) | DRSC20024 |
| 88134 | 96841 | – | 1056 | 1665 | inactive | ERp44 (GeneID 32588) | DRSC20215 |
| 83976 | 43621 | – | 2000 | 3881 | inactive | Cpr51A (GeneID 36613) | DRSC05969 |
| 1.04e5 | 67945 | – | 2880 | 4731 | inactive | CG42819 (GeneID 10178852) | DRSC02264 |
| 82742 | 2.33e5 | – | 3046 | 8198 | inactive | krz (GeneID 53554) | DRSC16979 |
| 85930 | 61042 | – | 2695 | 2301 | inactive | neb (GeneID 35293) | DRSC03577 |
| 1.37e5 | 2.36e5 | – | 4074 | 9384 | inactive | Mvk + CG33672 + spt4 | DRSC05356 |
| 71417 | 43325 | – | 3114 | 1773 | inactive | Mvk + CG33672 + spt4 | DRSC06628 |
| 62472 | 76677 | – | 2912 | 2755 | inactive | CG9536 (GeneID 33904) | DRSC03254 |
| 1.81e5 | – | – | 5834 | 5207 | inactive | CG13067 (GeneID 39785) | DRSC09950 |
| 75066 | 75729 | – | 1821 | 1660 | inactive | Or88a (GeneID 41715) | DRSC16770 |
| 6.22e5 | 2.49e5 | – | 31681 | 10100 | inactive | CG43153 (GeneID 12798157) | DRSC01189 |
| 4.44e5 | 1.25e5 | – | 5111 | 5111 | inactive | CG6144 (GeneID 34443) | DRSC02934 |
| 91444 | 54343 | – | 1581 | 5376 | inactive | Ir60b (GeneID 7354400) | DRSC04217 |
| 1.17e5 | 1.11e5 | – | 3194 | 3249 | inactive | Fbxl7 (GeneID 41935) | DRSC15553 |
| 44087 | 2.97e5 | – | 10352 | 6201 | inactive | CG33494 (GeneID 2768686) | DRSC13715 |
| 75000 | 1.09e5 | – | 2384 | 3237 | inactive | PolZ2 (GeneID 40677) | DRSC12325 |
| 97264 | 50688 | – | 2413 | 5347 | inactive | CG14759 (GeneID 35803) | DRSC06494 |
| 1.10e5 | 37421 | – | 3219 | 4602 | inactive | bero (GeneID 35355) | DRSC03211 |
| 1.93e5 | 97408 | – | 6934 | 3796 | inactive | Fkbp14 (GeneID 37449) | DRSC04615 |
| 1.30e5 | 67760 | – | 2903 | 4893 | inactive | tsu (GeneID 35924) | DRSC07265 |
| 86432 | 68411 | – | 2224 | 5296 | inactive | CG6435 (GeneID 36894) | DRSC06987 |
| 79500 | 42310 | 44352 | 3683 | 2727 | inactive | INPP5E (GeneID 39404) | DRSC09723 |
| 1.44e5 | 1.12e5 | – | 5729 | 4690 | inactive | CG10508 (GeneID 40342) | DRSC11612 |
| 91509 | 1.73e5 | – | 2336 | 5074 | inactive | CG10508 (GeneID 40342) | DRSC11613 |
| 79139 | 2.33e5 | – | 2817 | 8420 | inactive | CG34331 (GeneID 33011) | DRSC20679 |
| 1.03e5 | 64116 | – | 4209 | 2333 | inactive | Unc-115b + p24-2 | DRSC16492 |
| 86944 | 57939 | – | 2096 | 1717 | inactive | Ubr3 (GeneID 31713) | DRSC17987 |
| 78688 | 1.60e5 | – | 3096 | 6500 | inactive | Ubr3 (GeneID 31713) | DRSC17997 |
| 1.41e5 | 70083 | – | 3193 | 6384 | inactive | cype (GeneID 46040) | DRSC02356 |
| 1.79e5 | 87739 | – | 7282 | 3203 | inactive | Dark (GeneID 36914) | DRSC05922 |
| 1.15e5 | 1.42e5 | – | 2979 | 3272 | inactive | IntS2 (GeneID 32745) | DRSC20094 |
| 3.94e5 | 2.25e5 | – | 22717 | 5304 | inactive | mew (GeneID 32275) | DRSC18971 |
| 60433 | 2.34e5 | – | 1530 | 7745 | inactive | mew (GeneID 32275) | DRSC20352 |
| 98775 | 38186 | – | 6397 | 1888 | inactive | ct (GeneID 44540) | DRSC18757 |
| 40123 | 14375 | – | 1472 | 1760 | active | Asx (GeneID 36612) | DRSC05924 |
| 93606 | 1.27e5 | – | 1778 | 3840 | inactive | NO66 (GeneID 31374) | DRSC18252 |
| 52897 | 1.52e5 | – | 11249 | 3834 | inactive | CG31205 (GeneID 318626) | DRSC13438 |
| 82285 | 56807 | – | 2525 | 5781 | inactive | CG17134 (GeneID 34494) | DRSC02583 |

Laid out differently: results already given.
CG10508 (GeneID 40342) [DRSC11613] — firefly Hh reporter signal, replicate 1 = 91509; firefly Hh reporter signal, replicate 2 = 1.73e5; Renilla reference signal, replicate 1 = 2336; Renilla reference signal, replicate 2 = 5074; Call = inactive
CG34331 (GeneID 33011) [DRSC20679] — firefly Hh reporter signal, replicate 1 = 79139; firefly Hh reporter signal, replicate 2 = 2.33e5; Renilla reference signal, replicate 1 = 2817; Renilla reference signal, replicate 2 = 8420; Call = inactive
Unc-115b + p24-2 [DRSC16492] — firefly Hh reporter signal, replicate 1 = 1.03e5; firefly Hh reporter signal, replicate 2 = 64116; Renilla reference signal, replicate 1 = 4209; Renilla reference signal, replicate 2 = 2333; Call = inactive
Ubr3 (GeneID 31713) [DRSC17987] — firefly Hh reporter signal, replicate 1 = 86944; firefly Hh reporter signal, replicate 2 = 57939; Renilla reference signal, replicate 1 = 2096; Renilla reference signal, replicate 2 = 1717; Call = inactive
Ubr3 (GeneID 31713) [DRSC17997] — firefly Hh reporter signal, replicate 1 = 78688; firefly Hh reporter signal, replicate 2 = 1.60e5; Renilla reference signal, replicate 1 = 3096; Renilla reference signal, replicate 2 = 6500; Call = inactive
cype (GeneID 46040) [DRSC02356] — firefly Hh reporter signal, replicate 1 = 1.41e5; firefly Hh reporter signal, replicate 2 = 70083; Renilla reference signal, replicate 1 = 3193; Renilla reference signal, replicate 2 = 6384; Call = inactive
Dark (GeneID 36914) [DRSC05922] — firefly Hh reporter signal, replicate 1 = 1.79e5; firefly Hh reporter signal, replicate 2 = 87739; Renilla reference signal, replicate 1 = 7282; Renilla reference signal, replicate 2 = 3203; Call = inactive
